# Assay results published in the supplement of paper PMC6411743.
# Chains of the proteins cited; added tags and fusions are not shown. Lines headed by an entry give the natural chain unless they say otherwise; changes in a name come on top.
# UniProt Q96FJ2, whole entry: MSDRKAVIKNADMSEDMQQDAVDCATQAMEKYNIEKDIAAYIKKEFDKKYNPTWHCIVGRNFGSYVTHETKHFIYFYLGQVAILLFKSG
# UniProt Q96MX6, whole entry: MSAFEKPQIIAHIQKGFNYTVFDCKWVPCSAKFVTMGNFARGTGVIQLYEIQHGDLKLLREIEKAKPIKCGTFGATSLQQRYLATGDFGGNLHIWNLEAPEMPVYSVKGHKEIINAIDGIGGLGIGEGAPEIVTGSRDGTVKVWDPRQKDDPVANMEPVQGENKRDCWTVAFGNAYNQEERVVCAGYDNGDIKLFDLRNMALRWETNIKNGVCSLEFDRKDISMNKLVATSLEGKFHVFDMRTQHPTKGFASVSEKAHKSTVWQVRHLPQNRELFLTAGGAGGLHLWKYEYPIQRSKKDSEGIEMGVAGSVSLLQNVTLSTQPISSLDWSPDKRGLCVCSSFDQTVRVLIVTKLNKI
# UniProt Q96L93: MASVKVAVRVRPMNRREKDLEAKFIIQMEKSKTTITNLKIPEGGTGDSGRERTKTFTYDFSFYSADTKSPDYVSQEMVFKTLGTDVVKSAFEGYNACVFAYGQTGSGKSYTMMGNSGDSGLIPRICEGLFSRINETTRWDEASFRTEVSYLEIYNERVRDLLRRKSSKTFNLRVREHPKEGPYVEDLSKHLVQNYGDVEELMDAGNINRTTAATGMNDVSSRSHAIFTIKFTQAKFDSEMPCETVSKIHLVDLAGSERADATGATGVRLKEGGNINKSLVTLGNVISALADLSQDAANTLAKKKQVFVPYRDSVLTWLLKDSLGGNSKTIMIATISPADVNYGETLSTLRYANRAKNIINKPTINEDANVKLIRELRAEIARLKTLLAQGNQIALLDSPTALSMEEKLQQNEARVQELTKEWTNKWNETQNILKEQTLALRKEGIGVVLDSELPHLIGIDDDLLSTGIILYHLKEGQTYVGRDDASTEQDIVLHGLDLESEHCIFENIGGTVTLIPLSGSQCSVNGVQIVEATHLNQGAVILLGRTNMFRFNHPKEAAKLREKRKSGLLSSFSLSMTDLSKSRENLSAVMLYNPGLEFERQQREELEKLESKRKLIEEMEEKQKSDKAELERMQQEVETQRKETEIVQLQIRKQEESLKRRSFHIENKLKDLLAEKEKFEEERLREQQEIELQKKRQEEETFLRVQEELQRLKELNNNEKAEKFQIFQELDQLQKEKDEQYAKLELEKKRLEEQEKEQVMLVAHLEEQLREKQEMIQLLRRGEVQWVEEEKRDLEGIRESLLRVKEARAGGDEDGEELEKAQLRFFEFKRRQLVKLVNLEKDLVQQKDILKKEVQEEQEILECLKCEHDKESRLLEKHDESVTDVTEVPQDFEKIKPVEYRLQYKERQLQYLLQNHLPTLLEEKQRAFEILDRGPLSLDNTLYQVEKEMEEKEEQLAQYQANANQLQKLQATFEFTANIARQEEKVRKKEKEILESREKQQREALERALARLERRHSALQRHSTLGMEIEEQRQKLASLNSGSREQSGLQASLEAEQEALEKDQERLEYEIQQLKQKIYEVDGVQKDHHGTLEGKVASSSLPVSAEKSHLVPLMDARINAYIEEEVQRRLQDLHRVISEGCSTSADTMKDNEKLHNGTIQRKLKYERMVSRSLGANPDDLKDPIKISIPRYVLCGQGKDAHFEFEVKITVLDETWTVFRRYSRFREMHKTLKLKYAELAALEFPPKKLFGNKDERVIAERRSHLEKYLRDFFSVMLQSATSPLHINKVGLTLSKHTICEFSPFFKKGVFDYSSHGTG
# UniProt Q96CW6: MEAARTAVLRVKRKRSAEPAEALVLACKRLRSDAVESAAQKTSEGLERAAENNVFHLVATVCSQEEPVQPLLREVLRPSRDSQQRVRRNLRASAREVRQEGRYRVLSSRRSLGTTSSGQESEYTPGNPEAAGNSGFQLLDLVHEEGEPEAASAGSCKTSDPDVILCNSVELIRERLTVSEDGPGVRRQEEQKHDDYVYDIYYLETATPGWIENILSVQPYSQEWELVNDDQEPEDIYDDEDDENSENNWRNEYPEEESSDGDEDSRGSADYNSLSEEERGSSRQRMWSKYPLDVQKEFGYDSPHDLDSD
# UniProt Q969R5, whole entry: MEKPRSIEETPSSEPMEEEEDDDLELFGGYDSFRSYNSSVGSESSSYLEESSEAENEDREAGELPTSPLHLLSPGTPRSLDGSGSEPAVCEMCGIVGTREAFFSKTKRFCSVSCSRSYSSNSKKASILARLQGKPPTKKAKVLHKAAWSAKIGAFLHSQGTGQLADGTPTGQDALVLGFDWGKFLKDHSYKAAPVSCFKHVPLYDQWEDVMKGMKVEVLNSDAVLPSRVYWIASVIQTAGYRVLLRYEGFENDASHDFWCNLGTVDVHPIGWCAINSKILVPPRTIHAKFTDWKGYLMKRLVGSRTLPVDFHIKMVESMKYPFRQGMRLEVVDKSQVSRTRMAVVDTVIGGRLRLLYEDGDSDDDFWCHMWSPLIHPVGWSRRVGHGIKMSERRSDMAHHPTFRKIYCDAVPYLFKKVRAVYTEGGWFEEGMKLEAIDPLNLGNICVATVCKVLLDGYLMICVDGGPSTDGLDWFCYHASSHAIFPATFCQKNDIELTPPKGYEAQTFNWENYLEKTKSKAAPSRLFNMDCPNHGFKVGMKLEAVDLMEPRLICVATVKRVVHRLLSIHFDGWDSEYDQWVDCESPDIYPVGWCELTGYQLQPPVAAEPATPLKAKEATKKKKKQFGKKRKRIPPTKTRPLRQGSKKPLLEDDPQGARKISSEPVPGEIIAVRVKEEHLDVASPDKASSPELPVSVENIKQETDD
# UniProt Q96GA3: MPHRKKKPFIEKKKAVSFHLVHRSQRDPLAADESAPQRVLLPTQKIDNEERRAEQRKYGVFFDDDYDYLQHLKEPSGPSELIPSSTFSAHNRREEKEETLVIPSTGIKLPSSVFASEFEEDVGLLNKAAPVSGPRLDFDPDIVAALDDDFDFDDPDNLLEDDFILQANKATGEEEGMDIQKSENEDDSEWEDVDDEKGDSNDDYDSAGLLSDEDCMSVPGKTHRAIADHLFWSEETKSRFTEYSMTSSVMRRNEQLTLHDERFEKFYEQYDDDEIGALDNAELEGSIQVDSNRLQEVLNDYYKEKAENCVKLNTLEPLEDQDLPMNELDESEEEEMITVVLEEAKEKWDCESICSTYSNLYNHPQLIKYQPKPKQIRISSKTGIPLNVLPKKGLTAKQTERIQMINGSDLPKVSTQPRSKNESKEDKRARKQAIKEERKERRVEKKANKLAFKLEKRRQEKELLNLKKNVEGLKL
# UniProt Q96AT1: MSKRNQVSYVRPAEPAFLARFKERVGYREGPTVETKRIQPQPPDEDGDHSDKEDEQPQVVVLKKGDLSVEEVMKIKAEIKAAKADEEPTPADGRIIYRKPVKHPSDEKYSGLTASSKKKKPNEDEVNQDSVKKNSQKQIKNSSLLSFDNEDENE
# UniProt Q96BY9: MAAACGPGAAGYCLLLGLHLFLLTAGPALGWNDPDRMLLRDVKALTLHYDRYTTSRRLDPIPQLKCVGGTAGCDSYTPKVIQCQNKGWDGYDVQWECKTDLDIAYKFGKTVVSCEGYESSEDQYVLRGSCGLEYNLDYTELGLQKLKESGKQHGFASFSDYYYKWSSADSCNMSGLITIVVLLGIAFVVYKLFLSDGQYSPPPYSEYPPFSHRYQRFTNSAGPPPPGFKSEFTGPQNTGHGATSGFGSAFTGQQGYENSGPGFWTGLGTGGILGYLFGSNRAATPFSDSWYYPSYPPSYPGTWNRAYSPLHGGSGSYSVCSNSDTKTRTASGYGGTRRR
# UniProt Q96N64: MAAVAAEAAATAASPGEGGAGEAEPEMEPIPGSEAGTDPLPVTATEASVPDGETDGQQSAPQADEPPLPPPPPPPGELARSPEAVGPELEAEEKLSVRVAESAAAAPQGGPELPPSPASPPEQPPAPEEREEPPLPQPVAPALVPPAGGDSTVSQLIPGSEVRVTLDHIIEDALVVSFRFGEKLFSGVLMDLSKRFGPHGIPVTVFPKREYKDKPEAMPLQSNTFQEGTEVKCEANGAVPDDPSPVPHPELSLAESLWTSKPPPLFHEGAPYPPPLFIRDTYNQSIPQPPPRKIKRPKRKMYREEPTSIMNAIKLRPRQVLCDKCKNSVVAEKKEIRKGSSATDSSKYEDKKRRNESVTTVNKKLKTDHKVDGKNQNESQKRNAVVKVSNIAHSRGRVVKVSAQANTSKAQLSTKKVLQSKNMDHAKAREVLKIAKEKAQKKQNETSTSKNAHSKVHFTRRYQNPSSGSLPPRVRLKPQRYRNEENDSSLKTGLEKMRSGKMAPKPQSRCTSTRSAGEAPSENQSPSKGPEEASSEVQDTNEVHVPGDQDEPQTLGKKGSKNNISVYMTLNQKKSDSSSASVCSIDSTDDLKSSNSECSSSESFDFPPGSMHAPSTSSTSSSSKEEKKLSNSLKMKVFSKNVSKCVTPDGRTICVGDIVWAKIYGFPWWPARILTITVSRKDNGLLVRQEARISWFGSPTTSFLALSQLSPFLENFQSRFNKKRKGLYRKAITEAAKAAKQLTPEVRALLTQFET
# UniProt Q96AQ8: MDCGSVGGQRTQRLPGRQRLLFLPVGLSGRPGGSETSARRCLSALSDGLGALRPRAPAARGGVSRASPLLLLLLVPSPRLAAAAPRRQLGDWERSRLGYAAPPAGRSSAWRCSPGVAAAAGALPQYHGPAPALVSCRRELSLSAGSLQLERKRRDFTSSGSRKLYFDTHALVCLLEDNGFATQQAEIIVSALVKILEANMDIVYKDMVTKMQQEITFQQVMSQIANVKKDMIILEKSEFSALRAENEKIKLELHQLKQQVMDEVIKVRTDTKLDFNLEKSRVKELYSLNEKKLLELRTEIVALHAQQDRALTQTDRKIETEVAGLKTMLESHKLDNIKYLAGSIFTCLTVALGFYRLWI
# UniProt Q96CX2: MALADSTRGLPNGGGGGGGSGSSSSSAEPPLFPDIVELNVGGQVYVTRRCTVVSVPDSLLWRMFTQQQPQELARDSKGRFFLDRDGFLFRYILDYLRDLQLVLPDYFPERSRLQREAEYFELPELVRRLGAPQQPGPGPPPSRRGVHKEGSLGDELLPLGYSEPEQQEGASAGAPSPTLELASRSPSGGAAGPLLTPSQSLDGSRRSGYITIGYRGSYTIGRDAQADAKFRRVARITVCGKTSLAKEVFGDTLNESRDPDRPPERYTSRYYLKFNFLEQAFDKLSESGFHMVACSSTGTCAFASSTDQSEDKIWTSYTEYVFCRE
# UniProt Q96CN4: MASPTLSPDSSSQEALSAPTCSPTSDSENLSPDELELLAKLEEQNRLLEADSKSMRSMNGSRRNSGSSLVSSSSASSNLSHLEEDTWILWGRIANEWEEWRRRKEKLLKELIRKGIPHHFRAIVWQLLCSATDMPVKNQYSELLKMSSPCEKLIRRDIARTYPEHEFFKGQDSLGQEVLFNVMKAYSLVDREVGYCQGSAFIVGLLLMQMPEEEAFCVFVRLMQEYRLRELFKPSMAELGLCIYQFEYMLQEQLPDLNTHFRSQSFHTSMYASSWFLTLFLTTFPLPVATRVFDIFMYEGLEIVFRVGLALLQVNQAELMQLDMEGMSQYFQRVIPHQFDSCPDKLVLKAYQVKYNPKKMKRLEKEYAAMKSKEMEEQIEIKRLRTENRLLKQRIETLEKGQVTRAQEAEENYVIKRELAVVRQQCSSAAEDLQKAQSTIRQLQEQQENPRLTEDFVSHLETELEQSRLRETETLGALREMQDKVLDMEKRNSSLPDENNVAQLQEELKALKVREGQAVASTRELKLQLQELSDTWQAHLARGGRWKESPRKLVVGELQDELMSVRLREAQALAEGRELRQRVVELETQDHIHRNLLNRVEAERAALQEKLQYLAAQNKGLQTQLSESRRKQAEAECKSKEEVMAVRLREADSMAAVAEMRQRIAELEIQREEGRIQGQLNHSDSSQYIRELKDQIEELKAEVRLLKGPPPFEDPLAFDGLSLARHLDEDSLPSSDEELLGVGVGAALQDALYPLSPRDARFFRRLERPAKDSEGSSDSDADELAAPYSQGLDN
# UniProt Q96HC4: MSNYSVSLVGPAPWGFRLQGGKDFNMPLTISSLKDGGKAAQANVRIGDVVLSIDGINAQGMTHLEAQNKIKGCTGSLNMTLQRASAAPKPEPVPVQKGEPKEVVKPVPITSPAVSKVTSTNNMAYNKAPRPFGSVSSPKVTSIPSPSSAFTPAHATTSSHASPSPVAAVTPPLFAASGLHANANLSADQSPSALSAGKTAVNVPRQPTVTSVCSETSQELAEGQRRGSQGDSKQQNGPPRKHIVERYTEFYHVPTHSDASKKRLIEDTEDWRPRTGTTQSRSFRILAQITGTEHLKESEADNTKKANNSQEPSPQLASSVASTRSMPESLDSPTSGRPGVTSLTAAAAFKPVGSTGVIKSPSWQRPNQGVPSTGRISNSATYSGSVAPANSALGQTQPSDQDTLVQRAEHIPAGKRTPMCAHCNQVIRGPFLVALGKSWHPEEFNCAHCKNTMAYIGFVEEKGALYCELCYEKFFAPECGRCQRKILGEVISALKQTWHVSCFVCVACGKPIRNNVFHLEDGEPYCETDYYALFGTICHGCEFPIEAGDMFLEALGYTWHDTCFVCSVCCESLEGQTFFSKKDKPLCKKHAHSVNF
# ± gives the standard deviation of the averaged measurements. This is a selection; strong and weak results do not stand in their true shares.
# Compound: Nc1ncnc2c1ncn2[C@@H]1O[C@H](COP(=O)(O)OP(=O)(O)NP(=O)(O)O)[C@@H](O)[C@H]1O [adenylyl imidodiphosphate]
# Assay: NP40-soluble protein abundance relative to vehicle (solubility fold change) (ratio); higher = more soluble protein in presence of AMP-PNP
# Procedure, shortened: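 Jurkat crude lysate (Dounce-homogenised) was treated with eight concentrations from 0.1 to 10 mM for 10 min at room temperature, then 3 min at 37 °C. It was solubilised with 0.8% NP40 and benzonase (60 min, 4 °C) and ultracentrifuged, and the supernatant was TMT-labelled for LC-MS/MS. Intensities were vsn-normalised, and the value is the fold change against the NP40-processed vehicle per replicate, from three independent experiments.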
Target,NP40-soluble protein abundance (concentration: 1mM),NP40-soluble protein abundance (concentration: 2mM),NP40-soluble protein abundance (concentration: 4mM),NP40-soluble protein abundance (concentration: 6mM),NP40-soluble protein abundance (concentration: 8mM),NP40-soluble protein abundance (concentration: 10mM)
UniProt Q96FJ2,1.06 ± 0.022,1.08 ± 0.071,1.04 ± 0.059,0.998 ± 0.024,1.03 ± 0.048,0.987 ± 0.025
TESC (UniProt Q96BS2),0.98 ± 0.036,0.994 ± 0.012,0.997 ± 0.031,0.957 ± 0.017,0.962 ± 0.027,0.921 ± 0.029
UniProt Q96P48 and related entries,0.968 ± 0.022,0.896 ± 0.14,0.983 ± 0.07,0.903 ± 0.059,0.955 ± 0.066,0.882 ± 0.062
WDR92 (UniProt Q96MX6),0.98 ± 0.021,0.972 ± 0.039,1.03 ± 0.037,1.09 ± 0.06,1.09 ± 0.043,1.12 ± 0.059
MRPL53 (UniProt Q96EL3),0.987 ± 0.06,1.01 ± 0.023,0.986 ± 0.061,0.98 ± 0.045,1 ± 0.063,1 ± 0.066
UniProt Q96L93 and related entries,0.999 ± 0.034,0.99 ± 0.041,1.01 ± 0.058,0.958 ± 0.025,0.966 ± 0.018,0.991 ± 0.049
UniProt Q93008 and related entries,0.978 ± 0.018,0.899 ± 0.09,0.968 ± 0.041,0.9306 ± 0.0079,0.965 ± 0.036,0.907 ± 0.038
SLC7A6OS (UniProt Q96CW6),1.02 ± 0.033,1.06 ± 0.071,1.05 ± 0.042,1.02 ± 0.022,1.01 ± 0.013,1.01 ± 0.046
RBM14 (UniProt Q96PK6),1.07 ± 0.049,1.16 ± 0.089,1.23 ± 0.12,1.3 ± 0.14,1.31 ± 0.17,1.3 ± 0.16
NSL1 (UniProt Q96IY1),1.01 ± 0.027,1.03 ± 0.034,1.02 ± 0.04,1.04 ± 0.052,1.03 ± 0.041,1.05 ± 0.049
USP13 (UniProt Q92995),1.01 ± 0.0077,0.946 ± 0.068,0.996 ± 0.03,0.949 ± 0.026,0.968 ± 0.026,0.951 ± 0.033
DHRS1 (UniProt Q96LJ7),1 ± 0.027,0.9851 ± 0.0044,1.01 ± 0.026,1 ± 0.012,1 ± 0.034,0.971 ± 0.024
L3MBTL2 (UniProt Q969R5),0.989 ± 0.014,1 ± 0.038,1.02 ± 0.029,0.991 ± 0.039,1.01 ± 0.017,0.987 ± 0.069
LTV1 (UniProt Q96GA3),1.01 ± 0.04,1.11 ± 0.046,1.02 ± 0.063,1.01 ± 0.052,0.998 ± 0.041,1.01 ± 0.048
SMARCD1 (UniProt Q96GM5),1.01 ± 0.085,0.97 ± 0.12,1.03 ± 0.11,1.01 ± 0.12,1.03 ± 0.12,1.01 ± 0.12
UniProt Q96HN2-2|Q96HN2,1.03 ± 0.029,1.048 ± 0.0069,1.01 ± 0.018,1.01 ± 0.04,0.971 ± 0.025,0.985 ± 0.014
UniProt Q96DF8,1.01 ± 0.017,1.07 ± 0.067,1.02 ± 0.045,0.989 ± 0.015,0.977 ± 0.025,1 ± 0.038
KIAA1143 (UniProt Q96AT1),1.06 ± 0.011,1.03 ± 0.06,1.004 ± 0.0028,0.931 ± 0.058,0.915 ± 0.019,0.939 ± 0.029
UniProt Q96BY9 and related entries,1.008 ± 0.01,1.03 ± 0.037,1.02 ± 0.029,1.02 ± 0.028,1.02 ± 0.035,1.02 ± 0.025
RBM33 (UniProt Q96EV2),1.05 ± 0.029,1.08 ± 0.026,1.04 ± 0.0083,1.06 ± 0.021,1.05 ± 0.022,1.08 ± 0.023

# Another view of part of the listing above:
Target	NP40-soluble protein abundance (concentration: 1mM)	NP40-soluble protein abundance (concentration: 2mM)	NP40-soluble protein abundance (concentration: 4mM)	NP40-soluble protein abundance (concentration: 6mM)	NP40-soluble protein abundance (concentration: 8mM)	NP40-soluble protein abundance (concentration: 10mM)
UniProt Q96L93 and related entries	0.999 ± 0.034	0.99 ± 0.041	1.01 ± 0.058	0.958 ± 0.025	0.966 ± 0.018	0.991 ± 0.049
LTV1 (UniProt Q96GA3)	1.01 ± 0.04	1.11 ± 0.046	1.02 ± 0.063	1.01 ± 0.052	0.998 ± 0.041	1.01 ± 0.048

# More results follow.

Target,NP40-soluble protein abundance (concentration: 1mM),NP40-soluble protein abundance (concentration: 2mM),NP40-soluble protein abundance (concentration: 4mM),NP40-soluble protein abundance (concentration: 6mM),NP40-soluble protein abundance (concentration: 8mM),NP40-soluble protein abundance (concentration: 10mM)
PWWP2A (UniProt Q96N64),1.03 ± 0.022,1.04 ± 0.062,1.05 ± 0.043,1.06 ± 0.027,1.06 ± 0.03,1.09 ± 0.076
UniProt Q96PE3 and related entries,0.995 ± 0.045,0.936 ± 0.061,0.971 ± 0.012,0.959 ± 0.038,0.9689 ± 0.0027,0.943 ± 0.011
ITPKC (UniProt Q96DU7),0.967 ± 0.031,0.966 ± 0.049,0.951 ± 0.051,0.973 ± 0.042,0.953 ± 0.022,0.949 ± 0.05
EXOSC8 (UniProt Q96B26),1.05 ± 0.07,1.06 ± 0.051,1.11 ± 0.091,1.19 ± 0.08,1.24 ± 0.097,1.25 ± 0.15
RNF31 (UniProt Q96EP0),0.966 ± 0.016,0.96 ± 0.025,0.963 ± 0.028,0.9189 ± 0.003,0.904 ± 0.02,0.8976 ± 0.0037
MMAB (UniProt Q96EY8),0.9943 ± 0.0099,1.05 ± 0.048,1 ± 0.037,1.01 ± 0.029,0.978 ± 0.019,0.99 ± 0.022
UniProt Q96AQ8,0.998 ± 0.034,0.992 ± 0.044,0.983 ± 0.046,0.997 ± 0.039,0.9953 ± 0.0099,0.97 ± 0.059
USP7 (UniProt Q93009),0.999 ± 0.01,0.917 ± 0.09,0.974 ± 0.021,0.959 ± 0.028,0.978 ± 0.018,0.949 ± 0.042
EMG1 (UniProt Q92979),1.01 ± 0.03,1 ± 0.014,1.12 ± 0.087,1.19 ± 0.071,1.24 ± 0.096,1.26 ± 0.1
UniProt Q96G28 and related entries,0.997 ± 0.055,1.07 ± 0.043,0.966 ± 0.083,0.943 ± 0.031,0.943 ± 0.043,0.922 ± 0.098
UniProt Q969Y2 and related entries,0.9695 ± 0.0083,0.959 ± 0.046,0.965 ± 0.023,0.964 ± 0.035,0.968 ± 0.017,0.9655 ± 0.0079
KCTD12 (UniProt Q96CX2),1.05 ± 0.034,1.09 ± 0.042,1.07 ± 0.035,1.04 ± 0.011,1.06 ± 0.035,1.07 ± 0.049
UniProt Q96CN4 and related entries,1 ± 0.035,0.998 ± 0.067,1.02 ± 0.025,1 ± 0.011,0.974 ± 0.024,0.956 ± 0.049
PDXP (UniProt Q96GD0),0.978 ± 0.02,0.935 ± 0.046,0.9594 ± 0.0086,0.983 ± 0.011,0.973 ± 0.012,0.97 ± 0.041
PYCR2 (UniProt Q96C36),0.98 ± 0.028,1.01 ± 0.051,0.997 ± 0.013,1.01 ± 0.011,0.9755 ± 0.0097,1 ± 0.032
COG3 (UniProt Q96JB2),0.979 ± 0.028,0.999 ± 0.02,0.994 ± 0.035,0.948 ± 0.033,0.951 ± 0.04,0.954 ± 0.024
OPTN (UniProt Q96CV9),1.01 ± 0.023,1.05 ± 0.049,1.02 ± 0.02,0.978 ± 0.026,0.963 ± 0.025,0.965 ± 0.039
UniProt Q96P47 and related entries,1.02 ± 0.019,0.9959 ± 0.0076,1.01 ± 0.03,1 ± 0.072,1.04 ± 0.018,1.024 ± 0.0092
PDLIM5 (UniProt Q96HC4),1.02 ± 0.024,1.03 ± 0.03,1.02 ± 0.032,1.01 ± 0.012,0.9688 ± 0.0086,0.994 ± 0.033
ANKRD27 (UniProt Q96NW4),1.01 ± 0.024,1 ± 0.042,1.02 ± 0.05,0.986 ± 0.028,0.962 ± 0.019,0.97 ± 0.021
